Source: the ROBIN nucleic acid binder screens (doi:10.1002/anie.202211358).

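Each compound is printed as two spots on a slide made to bind it covalently, so it has no test concentration; the read-out is fluorescence of the bound, labelled oligonucleotide. For the PreQ1, TPP and SAM-II riboswitches the laboratory earlier reported (doi:10.1038/s41467-019-09493-3) 1 µM RNA, 2 h, and a rule that included a mean Z-score above 3 (spot signal-to-noise against the whole library), a score well above that on a control array, and duplicate spots agreeing (coefficient of variation under 100). The data file gives only the calls; its cut-offs may differ, and compounds hitting several targets are kept. These are primary screening calls, not affinities; a compound without a hit may have attached poorly or may still bind in solution.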
“1” means called a hit, “0” means screened and not called a hit.
The compounds are a random part of those screened.
A dash means that no call is listed here.

Oligonucleotides screened, 5′ to 3′:
T1: PreQ1 riboswitch RNA pseudoknot, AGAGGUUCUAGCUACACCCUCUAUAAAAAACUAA. From B. subtilis. Hit rate about 0.7% of about 24,000 compounds.
T2: SAM-II riboswitch RNA pseudoknot, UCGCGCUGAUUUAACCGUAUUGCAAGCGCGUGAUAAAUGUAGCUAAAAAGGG. Hit rate about 1% of about 21,000 compounds.
T3: TPP riboswitch RNA three-way junction, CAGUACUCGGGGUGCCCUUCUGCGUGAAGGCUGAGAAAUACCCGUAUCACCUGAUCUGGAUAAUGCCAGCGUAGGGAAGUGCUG. Hit rate about 0.7% of about 24,000 compounds.

| SMILES | T1 | T2 | T3 |
|---|---|---|---|
| `C[C@]12CC[C@H](O)CC1=CC[C@H]1[C@H]3CCC(=O)[C@@]3(C)CC[C@@H]12` | 0 | 0 | 0 |
| `Cn1c(=O)c2c(nc(NCCO)n2Cc2ccccc2Cl)n(C)c1=O` | 0 | 0 | 0 |
| `CC(C)Oc1cc(Nc2nc(N[C@@H](C)c3ccc(F)cn3)ncc2Cl)[nH]n1` | 0 | 0 | 0 |
| `COc1cccc2c(C)nc(Nc3nc(O)c4ccccc4n3)nc12` | 0 | 0 | 0 |
| `COc1ccc(-c2nn3c(NCC4CCCO4)cc(C)nc3c2C)cc1OC` (configuration not stated) | 0 | - | 0 |
| `Cc1ccnc(NS(=O)(=O)c2ccc(Nc3cc(-c4ccccc4)nc(C)n3)cc2)n1` | 0 | - | 0 |
| `Cc1c(Cl)cccc1-n1nnc(C(=O)Nc2cc(F)ccc2F)c1N` | 0 | 0 | 0 |
| `C=Cc1cccc(CN2CCCC(CNC(=O)C3(N)CCC3)C2)c1` (configuration not stated) | 0 | 0 | 0 |
| `CCC(NCc1cccnc1)c1ccc(OC)c(OC)c1` (configuration not stated) | 0 | 0 | 0 |
| `CNC(C)c1ccc2c(c1)OCCO2.Cl` (configuration not stated) | 0 | 0 | 0 |
| `Nc1cccc(CCc2nc3cc4ccccc4cc3[nH]2)c1` | 0 | 0 | 0 |
| `NS(=O)(=O)c1cc2c(cc1Cl)NC=NS2(=O)=O` | 0 | 0 | 0 |
| `Nc1ncc(Br)cc1S(=O)(=O)NCc1ccco1` | 0 | - | 0 |
| `Cc1ccccc1Nc1c(-c2cccnc2)nc2ccc(Br)cn12` | 0 | 0 | 0 |
| `CCc1n(CC(O)COc2cccc(Cl)c2)c2ccccc2[n+]1C` (configuration not stated) | 0 | 0 | 0 |
| `Cl.O[C@@H](CNC[C@H](O)[C@H]1CCc2cc(F)ccc2O1)[C@@H]1CCc2cc(F)ccc2O1` | 0 | 0 | 0 |
| `COc1ccccc1CCC(=O)N1CC[C@@H](N)[C@@H](OC)C1` | 0 | 0 | 0 |
| `Cc1cccc(-c2noc(-c3cccnc3NCc3cccnc3)n2)c1` | 0 | - | 0 |
| `Cc1ccc2[nH]c(C)c(C(O)CN3CCc4ccccc4C3)c2c1` (configuration not stated) | 0 | - | 0 |
| `Nc1ncnc(Nc2ccc(F)c(F)c2)n1` | 0 | 0 | 0 |
| `CCCOc1ccc(Oc2nc(NCC(C)C)nc(N3CCOCC3)n2)nn1` | 0 | - | 0 |
| `CCOc1ccccc1CNc1ccc2c(c1)ncn2C(C)(C)C` | 0 | 0 | 0 |
| `C=CCc1ccc(OCC(O)CN2CCCCC2)c(OC)c1` (configuration not stated) | 0 | 0 | 0 |
| `Cc1cc(C(F)(F)F)nc(N2CCN(CC3CCCNC3)CC2)n1` (configuration not stated) | 0 | 0 | 0 |
| `Cc1cccc(NC2CCCCC2NS(=O)(=O)c2ccccc2)c1` (configuration not stated) | 0 | - | 0 |
| `O=C1CC(N2CCCCC2)C=C1Nc1ccccc1` (configuration not stated) | 0 | 0 | 0 |
| `Cc1ccc(C)c2c(O)cc(CNCCc3cscn3)nc12` | 0 | 0 | 0 |
| `NS(=O)(=O)c1ccc(Nc2nc(-c3cc4ccccc4oc3=O)cs2)cc1` | 0 | 0 | 0 |
| `CCn1nc(C(C)C)cc1C(=O)N1C[C@@H](CN2CCCCCC2)[C@@H](CO)C1` | 0 | 0 | 0 |